Results reported in the supplement of paper PMC3334620.
In all, about 33,000 sequences were measured (“E-score (-0.5 to 0.5)”: median about -0.0059, highest 2% from about 0.26 on). This is one part of the list.

molecular target: T1, Cin5 (UniProt P40917); assay: PBM E-score (8-mer binding enrichment) (E-score (-0.5 to 0.5)); higher = stronger / more preferred TF binding; details: protein concentration: 100 nM; construct: GST-full length
T1 sequence: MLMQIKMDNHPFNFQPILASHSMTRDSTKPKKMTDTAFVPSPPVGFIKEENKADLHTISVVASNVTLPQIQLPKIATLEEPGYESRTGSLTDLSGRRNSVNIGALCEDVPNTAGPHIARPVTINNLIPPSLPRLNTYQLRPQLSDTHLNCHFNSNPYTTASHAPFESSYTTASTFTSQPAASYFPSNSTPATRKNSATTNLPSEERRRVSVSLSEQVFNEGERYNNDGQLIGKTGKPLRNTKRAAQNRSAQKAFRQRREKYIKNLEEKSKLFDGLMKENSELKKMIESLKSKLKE
How it was run: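 Each ungapped eight-base word and its reverse complement, pooled, received an E-score from the Universal PBM Analysis Suite. Underlying scans, normalised with masliner, recorded fluorescent anti-GST bound to GST-tagged yeast transcription factors. These were applied at about 100-200 nM to universal all-10-mer Agilent arrays double-stranded by primer extension.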

Sequence	PBM E-score
GACTAGCA	-0.123
AATCGAAT	0.237
GCTGGATA	-0.0319
ATCTGCAC	0.0151
CATGTAGA	0.0846
GACTTTCC	-0.107
AGACGATG	-0.00995
CGTGACAG	-0.179
CACCACAC	0.00236
ATCCGACA	-0.119
AGCGCGGG	0.156
CAACATTG	0.111
CCGAAGCA	0.0749
AACCGTCC	-0.107
ATTAAGAG	-0.0971
ACCAGCCC	-0.151
GATGCCAC	-0.105
GGTGTATA	-0.256
AGTTTCGC	0.0693
ACCTTAAC	0.0676
GATGCCTA	-0.229
GCGGTGCC	-0.28
GACTTACA	-0.121
CACTAGTA	0.165
ACCTATAA	-0.0275

Sequence	PBM E-score
AACAGATA	0.057
CTGCTGTC	-0.0623
ATCGAGTC	0.0696
TAAATCGA	0.0908
ACCAGGCC	-0.134
CAGTGGGG	-0.231
GAGGAAAC	-0.0442
CCCGCTAA	-0.127
CATACATC	0.127
CAAAGCCA	-0.0284
GGGTACCC	-0.418
CCCAGCAC	-0.0984
AATACTGG	0.129
GCGTCCTA	-0.221
CCCGGCCG	-0.199
CGTAAAGA	-0.149
CAGACCCA	-0.0333
CTGCTAGA	-0.136
GATTGCGA	0.0955
CATATCAG	0.0807
AGATTCTG	-0.141
CGGTTGAC	-0.0501
CAAGCTAA	0.00309
ACGCCAGA	-0.124
AGACTCCG	-0.121

Sequence	PBM E-score
ATACGGGA	-0.0908
CGATTGAC	0.121
CCTATATA	0.0157
ACCCGACA	0.00507
CAACTTCG	0.112
CTTCCTGA	0.0966
AGCGTCCA	-0.162
AATATTTG	0.246
CGCGGTGC	-0.135
AAACAGTG	0.169
AGGGGAGG	0.0111
ATCCACAT	0.0955
CGAACGAC	0.0935
CCTGACAA	-0.00087
AGGCTGTC	-0.245
TACGGCAA	0.185
CCAGGGTC	-0.232
CCCGCATC	-0.0563
GATCCGCA	0.0421
ATTCCAGG	0.116
AACCCCAA	0.221
ACCTGTAC	-0.117
CCCGTCCA	-0.11
AGACCTCG	-0.0891
GATAAGTA	0.0537

Sequence	PBM E-score
GAATGGTC	-0.0653
ACAATGGT	-0.0691
CCATAGTC	-0.0985
AAGCGATT	0.0516
AGCCGACG	-0.0574
TCAAGCAA	-0.0131
CCGCGTGA	0.114
CTTCGGGA	-0.095
CGAGATCA	0.149
CCACTCCA	-0.0551
CATTGCCA	0.0347
ACTTCGTG	0.0515
TATCGTCA	0.0394
CGAAAATC	0.111
AGCTACAT	-0.0113
ACGCGGCT	-0.0786
AGTACCTG	-0.042
CCATTCTA	0.0523
ACACCGGA	-0.0407
GCCTGCGC	-0.224
GACGTAAA	0.103
ACTTTCAA	0.0815
GTAACCAA	0.206
GATAAGAC	0.0478
CAGTGAAC	0.205

6 records picked at random from the list so far, as already listed:
Sequence	PBM E-score
CCATAGTC	-0.0985
CAGACCCA	-0.0333
CACCACAC	0.00236
CGTAAAGA	-0.149
GACGTAAA	0.103
AACCCCAA	0.221

Remaining list, next part

Sequence	PBM E-score
CAGGTGTA	0.0935
GCGCGGAA	0.192
GCTGCGTA	-0.042
GAGACGCA	-0.0714
GTCCAATA	0.00916
GAAGGGCC	-0.29
AAGAAAAT	0.159
CGCAATCA	0.0971
CAGGTACG	-0.209
CTATAAGC	0.095
GAGACATC	-0.00679
GACTACTA	0.0658
CAAGCGTC	-0.108
AGGCGGGA	-0.0532
ATGGCTAC	0.0242
CATGCGGG	-0.124
GGAGAGAC	-0.0957
AGCTTGTA	0.0486
ACTTAGAC	0.0559
GCCCTACA	-0.104
ATAAAGAT	0.122
ACTGTAAG	0.143
ACTTAAAT	0.105
TATAGTGA	-0.0129
CGCCCACC	-0.0217

Sequence	PBM E-score
TCGTAGCA	0.0576
GTGTTAAC	-0.03
ACTTAGTC	-0.0898
GCATCTAA	0.172
TCTAGCAA	0.095
CGTCCTTC	0.0493
AGAAAGGC	-0.114
CGTATAGA	-0.00706
CACGGAAC	0.183
ATTCCGAA	0.235
CCCTATCG	-0.123
ATGGGAAC	0.0289
CATCATAG	0.144
ATAGCGGG	-0.0689
CCTACCAC	-0.224
GGACACAA	0.164
CAGTCGCG	-0.0811
ATCACTGG	0.00769
CACGTTTC	-0.0735
ATGCTCAA	0.0191
ATCTTGCG	0.0774
ACGCAGTA	-0.15
CTCTGCTA	-0.18
CCGTGAGA	-0.182
GGATGTCA	0.198

Sequence	PBM E-score
CTTGTAGC	0.146
ACGCGGAC	-0.151
GCTGGTAC	-0.17
CCACGCCA	-0.0554
AGCCCCCT	-0.39
GTCGTAGA	0.0262
CATCCAGA	-0.0862
ACTAGCAA	0.00926
CCACACAA	0.0874
CGTGGTGA	-0.163
CGGCGCGA	0.105
ACCCGATA	-0.0171
AGCCCACT	-0.0711
AGGATGAT	0.257
ACCGGATG	0.0218
GGCATCCC	-0.19
GGCTCAGA	-0.0705
CGACGCGA	-0.0541
CCGGGTCG	-0.131
CGGCAAGA	-0.0392
ACGGTGCT	-0.123
GGCACTAA	0.0186
